The list shows a part of the results. These are further read-outs of the screen, such as a control signal, another cell line or another target. No call is given for them. Compounds called inactive in the main read-out are mostly missing here. Potencies come from curve fits of mixed quality, noted in brackets.
Experiment: qHTS Assay to Find Inhibitors of Chronic Active B-Cell Receptor Signaling
Conditions: ABC-DLBCL IkBa-CBG/CBR reporter, luminescence ratio (green luciferase fused to IkBa over red control in TMD8 lymphoma cells), 4 h
Summary of the method: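 Cell line TMD8 (human ABC DLBCL), stably expressing tet-inducible CBG68-IkBa fusion and CBR; IMDM/0.5% FBS; cpd up to 46 uM; dox induction, 4 h, 37C/5% CO2; dual luminescence; green/red ratio; MG132 control.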

[1] = measured here: CBR red luminescence, cell number
[2] = measured here: IkBa-CBG green luminescence

Structure (SMILES) | AC50 [1] | AC50 [2]
O=C(NNC1=C(C(=O)C(F)(F)F)CCC1)c1cccc(Cl)c1 | 9.2 µM [falling, partial curve, poor fit] | 
Cc1ccc(OCC(=O)N/N=C/c2ccc([N+](=O)[O-])o2)cc1 | 20.6 µM [falling, single point] | 
Cc1c(NC(=O)CSCc2ccccc2)cccc1C(=O)O | 12.6 µM [falling, partial curve] | 
COc1cccc(CCC(=O)Nc2cc3c(cc2C(=O)O)OCCCO3)c1OC | 29.1 µM [falling, single point] | 
Cc1ccc(N2C(=O)S/C(=C/c3cn(C)c4ccccc34)C2=O)cc1 | 0.631 µM [rising, full curve, poor fit] | 
COc1cccc2[nH]c(C(=O)NC(C)c3ccccc3)cc12 (stereo not drawn) | 35.5 µM [falling, single point] | 
Cc1cc(Cl)ccc1NC(=S)NC(C)(C)C | 0.112 µM [falling, full curve] | 
O=C1O/C(=C\c2ccccc2)c2ccccc21 | 8.2 µM [rising, partial curve, poor fit] | 
CCN(CC(=O)Nc1c(F)cccc1F)C(=O)CNC(=O)c1ccco1 | 29.1 µM [rising, single point] | 
COc1ccccc1C(=O)NNC(=O)c1cccc(Br)c1 | 10 µM [falling, partial curve] | 
CCC(=O)Nc1cc2nn(-c3ccccc3)nc2cc1Cl | 0.146 µM [rising, full curve, poor fit] | 
CCOC(=O)C1CCCN(CC(=O)Nc2c(C(=O)OC)[nH]c3ccc(Br)cc23)C1 (stereo not drawn) | 14.1 µM [falling, single point] | 
N#Cc1nc(/C=C/c2ccccc2)oc1NCCCN1CCOCC1 | 0.0794 µM [falling, full curve, poor fit] | 
Cc1nc(C(C)N(C)Cc2nc(-c3ccc4c(c3)OCO4)no2)c(C)s1 (stereo not drawn) | 6.31 µM [falling, partial curve, poor fit] | 
CC1C(=O)NN=C1C(=O)N/N=C/c1ccco1 (stereo not drawn) | 22.4 µM [falling, partial curve, poor fit] | 
N=c1n(Cc2ccc(Cl)cc2)c2ccccc2n1CC(O)COc1ccccc1 (stereo not drawn) | 11.2 µM [falling, single point] | 
CCN1/C(=C2\OC(=S)N(C)C2=O)Sc2ccccc21 | 1 µM [rising, full curve, poor fit] | 
CC(C)Cc1nnc(NC(=O)CCc2ccccc2)s1 | 0.355 µM [rising, full curve, poor fit] | 
COc1cc(/C=N/NC(=O)c2cccc(NC(=O)c3ccccc3)c2)ccc1O | 0.562 µM [falling, full curve, poor fit] | 
CCOc1ccc(NC2=NC(C(=O)NCc3ccccc3)CC(=O)N2)cc1 (stereo not drawn) | 5.62 µM [rising, single point] | 
Cc1ccc(NC(=O)n2ncc3c(C)cccc32)cc1F | 11.2 µM [falling, partial curve] | 
CCn1c(SCC(=O)N2CCC(C)CC2)nc2c(c1=O)SCC2 | 8.91 µM [falling, partial curve, poor fit] | 

Structure (SMILES) | AC50 [1] | AC50 [2]
CC(C)c1cc(C(=O)N/N=C/C(Br)=C/c2ccccc2)n[nH]1 | 14.1 µM [rising, partial curve, poor fit] | 17.8 µM [falling, single point]
COc1cc(SC)ccc1C(=O)Nc1ccc(Br)cn1 | 7.08 µM [falling, partial curve, poor fit] | 
Fc1ccc2cnc(CCO[C@H]3CCCCO3)cc2c1 | 0.259 µM [rising, full curve, poor fit] | 
CC(=O)Nc1ccc2nc(-c3ccncc3)[nH]c2c1 | 1.16 µM [falling, full curve] | 
O=C(CN1CCN(c2ncccn2)CC1)N(Cc1ccccc1)c1ccc(F)cc1 | 29.1 µM [falling, partial curve, poor fit] | 
CC(OC(=O)C(C)Oc1ccccc1)C(=O)Nc1ccc(S(=O)(=O)N2CCCCC2)cc1 (stereo not drawn) | 29.1 µM [rising, single point] | 16.4 µM [falling, partial curve, poor fit]
COCc1cc(=O)[nH]c(Nc2nc(C)c3cc(OC)ccc3n2)n1 | 8.2 µM [falling, partial curve, poor fit] | 
N#Cc1nc(COc2ccccc2)oc1N1CCCCCC1 | 11.6 µM [rising, partial curve, poor fit] | 
c1ccc(-c2nc(-c3nccc4ccccc34)oc2-c2ccccc2)cc1 | 35.5 µM [falling, single point] | 
O=C(CN(c1ccc(Cl)cc1)S(=O)(=O)c1ccccc1)N1CCN(c2ccccc2)CC1 | 6.51 µM [rising, single point] | 
COc1ccccc1NC(=O)N1c2ccc(F)cc2CCC1C (stereo not drawn) | 29.1 µM [falling, single point] | 
CC(=O)Cn1nnc2sc(-c3ccccc3)cc2c1=O | 35.5 µM [falling, single point] | 
CCN(CC)CC(=O)Nc1ccc2c(c1)Nc1ccccc1CC2 | 14.1 µM [falling, single point] | 
O=C(O)c1ccc(N=NN2CCCCCC2)cc1 | 6.51 µM [falling, partial curve, poor fit] | 
Cc1cc(NC(=O)CSc2cn(CCNC(=O)c3ccc(Cl)cc3)c3ccccc23)no1 | 10.3 µM [falling, partial curve, poor fit] | 
Cc1ccccc1C(=O)N/N=C/c1ccc([N+](=O)[O-])s1 | 11.6 µM [falling, partial curve, poor fit] | 
CN(CC(=O)Nc1ccc(F)c(F)c1F)C(=O)C1CCC1 | 0.206 µM [rising, full curve, poor fit] | 
O=C(c1ccco1)c1cn(CC(=O)N2CCCc3ccccc32)c2ccccc12 | 29.1 µM [falling, single point] | 
COc1cc(OC)c2c(c1)OC(=O)CC2c1ccc(C)cc1 (stereo not drawn) | 16.4 µM [rising, partial curve] | 
CCOC(=O)C1=C(C)OC(N)=C(C#N)C1c1c(C)nn(-c2ccc(C)cc2)c1Cl (stereo not drawn) | 32.6 µM [rising, single point] | 
Cc1cc(C(=O)NCCc2ccc(Cl)cc2)no1 | 0.891 µM [rising, full curve, poor fit] | 
Cc1cc(C)nc(NC(N)=NC(C)c2ccccc2)n1 (stereo not drawn) | 35.5 µM [falling, single point] | 

Sorted by length of the SMILES (ascending): some entries from above.
Structure (SMILES) | AC50 [1] | AC50 [2]
Cc1cc(C(=O)NCCc2ccc(Cl)cc2)no1 | 0.891 µM [rising, full curve, poor fit] | 
CN(CC(=O)Nc1ccc(F)c(F)c1F)C(=O)C1CCC1 | 0.206 µM [rising, full curve, poor fit] | 
c1ccc(-c2nc(-c3nccc4ccccc34)oc2-c2ccccc2)cc1 | 35.5 µM [falling, single point] | 

(next part)

Structure (SMILES) | AC50 [1] | AC50 [2]
COc1ccc(C2=NOC3(CC(=O)N(c4ccc(F)cc4)C3=O)C2)c(OC)c1 (stereo not drawn) | 23.1 µM [falling, partial curve, poor fit] | 
O=C1CCC(=O)N1c1nc2nc(-c3ccccc3)cc(=O)n2[nH]1 | 4.61 µM [rising, partial curve, poor fit] | 
CCN1CCS/C1=C\C=C\C1=[N+](CC)CCS1 |  | 22.4 µM [falling, single point]
O=C(COC(=O)CNC(=O)c1ccccc1)Nc1nnc(-c2ccccc2)o1 | 16.4 µM [falling, partial curve, poor fit] | 
Cc1ccccc1CSc1nc2nc(C)c(Cc3ccccc3)c(C)n2n1 | 35.5 µM [rising, single point] | 
CCN1C(=O)[C@H]2[C@@H](c3ccc(-c4cccc(Cl)c4)cc3)N[C@@](Cc3ccccc3)(C(=O)OC)[C@H]2C1=O | 13 µM [falling, partial curve, poor fit] | 
COc1cccc(NC(=O)c2oc3ccccc3c2NC(=O)C(C)(C)C)c1 | 8.2 µM [falling, partial curve] | 
COc1ccc(C(=O)NNc2cc(C)nc(NNC(=O)c3ccc(OC)cc3)n2)cc1 | 35.5 µM [falling, partial curve, poor fit] | 
O=C(Nc1cccc(Cl)c1)Nc1ccnc(-c2cccnc2)n1 | 6.31 µM [falling, single point] | 
COc1ccc(S(=O)(=O)N2CCN(C3CC4CCC3C4)CC2)cc1 (stereo not drawn) | 35.5 µM [falling, single point] | 
Nc1nc(SCc2ccc([N+](=O)[O-])cc2)c2ncn(C3OC(CO)C(O)C3O)c2n1 (stereo not drawn) | 6.31 µM [rising, partial curve, poor fit] | 
Cc1ccn2cc(CSc3ccccc3)nc2c1 | 5.8 µM [falling, partial curve, poor fit] | 
Cc1noc(/C=C/c2cccnc2)c1[N+](=O)[O-] | 25.1 µM [falling, single point] | 
O=C(Nc1ccc(Br)cn1)C1CCCN1S(=O)(=O)c1ccccc1 (stereo not drawn) | 3.16 µM [falling, partial curve] | 
COc1ccc2oc(C(=O)OC(C)C(=O)Nc3ccc(N4CCOCC4)cc3)c(C)c2c1 (stereo not drawn) | 23.1 µM [rising, single point] | 
COc1ccc(CC(=O)NCc2ccc(-n3cccc3)cc2)cc1OC | 14.1 µM [rising, single point] | 7.94 µM [falling, partial curve, poor fit]
CC(C)C(=O)Nc1ccc(N2CCCC2)cc1 | 18.4 µM [rising, single point] | 
Cc1ccccc1OCCSc1nnc(-c2ccncc2)n1C | 16.4 µM [rising, single point] | 
O=C(Nc1cc(Cl)cc(Cl)c1)c1cccc(OC(F)F)c1 | 20.6 µM [falling, single point] | 32.6 µM [rising, partial curve, poor fit]
O=C(N/N=C/c1cn(-c2ccccc2)nc1-c1ccc(F)cc1)c1ccc2c(c1)OCO2 | 3.55 µM [falling, partial curve, poor fit] | 
